Laboratory results as given in doi:10.1101/2025.02.12.637793.
These are yes or no findings as the source states them, for the method shown. Binding seen in cells or lysates may run through a third protein. Some entries that bind do so weakly or less than the wild type. For part of these data: Where a sequence is shown, tags or fusion partners need not be part of it. Values belong to the molecule of their own block, whether it stands above or below them.

Sequences of proteins named here, by UniProt entry; tags and fusion partners are left off. Residues count along the entry.
UniProt P19634: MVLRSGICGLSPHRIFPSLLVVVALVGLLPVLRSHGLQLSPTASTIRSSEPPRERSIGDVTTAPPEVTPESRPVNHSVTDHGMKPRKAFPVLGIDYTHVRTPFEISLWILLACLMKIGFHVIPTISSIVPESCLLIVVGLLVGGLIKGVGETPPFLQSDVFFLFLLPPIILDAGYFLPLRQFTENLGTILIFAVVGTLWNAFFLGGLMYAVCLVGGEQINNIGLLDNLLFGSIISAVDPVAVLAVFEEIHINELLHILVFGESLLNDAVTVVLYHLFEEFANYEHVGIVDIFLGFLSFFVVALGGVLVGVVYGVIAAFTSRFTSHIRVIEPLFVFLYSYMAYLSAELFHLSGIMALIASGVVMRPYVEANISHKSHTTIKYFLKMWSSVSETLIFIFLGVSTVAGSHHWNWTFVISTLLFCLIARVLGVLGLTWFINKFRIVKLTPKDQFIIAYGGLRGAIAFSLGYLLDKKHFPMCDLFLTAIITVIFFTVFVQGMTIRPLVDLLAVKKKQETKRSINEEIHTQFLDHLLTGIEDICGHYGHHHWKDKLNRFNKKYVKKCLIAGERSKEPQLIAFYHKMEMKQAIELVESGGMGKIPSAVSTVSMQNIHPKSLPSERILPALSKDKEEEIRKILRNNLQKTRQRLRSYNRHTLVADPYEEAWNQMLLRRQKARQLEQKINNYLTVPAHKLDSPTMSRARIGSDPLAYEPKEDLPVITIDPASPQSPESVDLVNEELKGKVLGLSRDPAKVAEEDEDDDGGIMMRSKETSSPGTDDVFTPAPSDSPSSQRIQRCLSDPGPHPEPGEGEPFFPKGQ
UniProt P48764, residues 26-834: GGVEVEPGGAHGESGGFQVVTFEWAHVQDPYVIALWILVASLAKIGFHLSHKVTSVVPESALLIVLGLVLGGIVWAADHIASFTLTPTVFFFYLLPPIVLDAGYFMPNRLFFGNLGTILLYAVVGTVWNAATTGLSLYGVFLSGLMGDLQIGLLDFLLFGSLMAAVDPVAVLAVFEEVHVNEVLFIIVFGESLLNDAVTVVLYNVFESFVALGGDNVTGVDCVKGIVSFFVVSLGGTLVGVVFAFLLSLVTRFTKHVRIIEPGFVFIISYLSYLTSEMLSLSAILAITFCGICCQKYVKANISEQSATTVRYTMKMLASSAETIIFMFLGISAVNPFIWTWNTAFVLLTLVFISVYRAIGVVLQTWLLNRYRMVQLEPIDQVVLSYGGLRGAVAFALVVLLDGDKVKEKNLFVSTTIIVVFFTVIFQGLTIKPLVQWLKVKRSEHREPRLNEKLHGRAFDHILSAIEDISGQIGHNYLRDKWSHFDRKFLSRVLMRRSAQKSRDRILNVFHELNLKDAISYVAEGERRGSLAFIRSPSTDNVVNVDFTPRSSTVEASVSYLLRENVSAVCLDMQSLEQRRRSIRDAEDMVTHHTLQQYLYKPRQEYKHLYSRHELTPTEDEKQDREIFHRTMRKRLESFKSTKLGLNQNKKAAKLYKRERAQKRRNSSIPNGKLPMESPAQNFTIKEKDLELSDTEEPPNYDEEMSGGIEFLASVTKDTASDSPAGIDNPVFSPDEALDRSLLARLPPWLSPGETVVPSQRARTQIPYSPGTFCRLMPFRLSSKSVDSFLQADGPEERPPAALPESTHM

Tests used:
Assay in all cases: co-IP
[1] = molecular target: T1, cystinosinLKG-DsRed (human) (UniProt O60931)
T1 sequence: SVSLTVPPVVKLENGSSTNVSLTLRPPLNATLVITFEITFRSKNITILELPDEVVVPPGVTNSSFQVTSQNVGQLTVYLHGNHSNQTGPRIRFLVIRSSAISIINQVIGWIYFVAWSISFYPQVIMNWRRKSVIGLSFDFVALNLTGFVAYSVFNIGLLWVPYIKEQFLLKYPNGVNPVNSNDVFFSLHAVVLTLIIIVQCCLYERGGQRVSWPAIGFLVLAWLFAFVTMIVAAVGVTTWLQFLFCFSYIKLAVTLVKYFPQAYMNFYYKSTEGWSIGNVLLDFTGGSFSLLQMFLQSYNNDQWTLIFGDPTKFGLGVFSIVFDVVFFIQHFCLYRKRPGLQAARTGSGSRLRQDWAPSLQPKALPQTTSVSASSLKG

NHE1-GFP (human) = NHE1-GFP (human) (UniProt P19634)
NHE2-GFP (human) = molecular target: T2, NHE2-GFP (human) (UniProt Q9UBY0)
T2 sequence: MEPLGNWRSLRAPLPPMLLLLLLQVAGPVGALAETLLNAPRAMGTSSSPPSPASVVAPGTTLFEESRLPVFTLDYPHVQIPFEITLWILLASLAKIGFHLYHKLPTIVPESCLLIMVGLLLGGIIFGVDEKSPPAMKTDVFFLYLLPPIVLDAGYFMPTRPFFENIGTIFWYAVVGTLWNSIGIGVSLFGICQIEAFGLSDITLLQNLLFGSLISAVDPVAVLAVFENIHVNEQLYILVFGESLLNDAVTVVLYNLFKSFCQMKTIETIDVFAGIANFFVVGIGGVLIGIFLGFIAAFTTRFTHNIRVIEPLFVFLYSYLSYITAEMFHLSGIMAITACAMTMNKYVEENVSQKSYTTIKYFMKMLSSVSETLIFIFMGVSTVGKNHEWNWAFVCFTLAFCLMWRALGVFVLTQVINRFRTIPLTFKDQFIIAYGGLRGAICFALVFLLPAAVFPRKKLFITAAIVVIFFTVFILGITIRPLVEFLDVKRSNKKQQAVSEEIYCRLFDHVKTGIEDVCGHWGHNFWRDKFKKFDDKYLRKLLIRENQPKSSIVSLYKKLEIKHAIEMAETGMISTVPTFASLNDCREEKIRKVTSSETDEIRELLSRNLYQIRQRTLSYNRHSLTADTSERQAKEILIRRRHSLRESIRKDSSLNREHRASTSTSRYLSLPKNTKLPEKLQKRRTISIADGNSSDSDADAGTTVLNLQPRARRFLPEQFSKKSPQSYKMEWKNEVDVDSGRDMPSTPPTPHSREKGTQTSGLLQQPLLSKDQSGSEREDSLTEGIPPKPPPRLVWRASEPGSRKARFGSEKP

[2] = molecular target: NHE3-GFP (Na+/H+ exchanger isoform 3 fused with green fluorescent protein) (human) (UniProt P48764)

binding [1]: binds
Molecule: NHE3-GFP (Na+/H+ exchanger isoform 3 fused with green fluorescent protein) (from UniProt P48764 26-834)

binding [1]: no binding
Molecule: NHE1-GFP (from UniProt P19634 1-815)

The remaining lines, values behind:

B1: cystinosinLKG-DsRed (protein, UniProt O60931-2 23-400)
chain: T1 sequence
binding (NHE1-GFP (human)): no binding | binding (NHE2-GFP (human)): binds | binding [2]: binds

B2: NHE2-GFP (protein, UniProt Q9UBY0 1-812)
chain: T2 sequence
binding [1]: binds
